Reference: patent publication US11826431B2, “Polypeptide-based ocular absorption enhancer and application thereof” (Fudan University, priority 2017, dated 2023)
Not every detail of the peptide structures is certain; ends, links or a residue may be inferred. Where a SMILES comes first, the peptide text is derived from it. The star is where a group is joined. 5FAM = O=C1OC2(c3ccc(O)cc3Oc3cc(O)ccc32)c2ccc(C(=O)*)cc21

Columns and labels:
HCEC cells = assay: Quantitative evaluation of cell uptake (flow cytometry), HCEC; type: cell-based, human; settings: 3 μM complex with FAM, 4 h
[1] = system: human corneal epithelial cells (HCEC) and human conjunctival epithelial cells (NHC); assay: Qualitative evaluation of cell uptake of penetratin derivative-FAM covalent complexes (fluorescence microscopy); type: cell-based; settings: 100 nM complex with FAM, incubation 0.5-4 h

C[C@H](NC(=O)[C@H](C)NC(=O)[C@H](CCCCN)NC(=O)[C@H](C)NC(=O)[C@H](CCC(N)=O)NC(=O)[C@@H](N)CCCNC(=N)N)C(=O)N[C@@H](C)C(=O)N[C@@H](CCC(N)=O)C(=O)N[C@@H](CC(N)=O)C(=O)N[C@@H](CCCNC(=N)N)C(=O)N[C@@H](CCCNC(=N)N)C(=O)N[C@@H](C)C(=O)N[C@@H](CCCCN)C(=O)N[C@@H](C)C(=O)N[C@@H](CCCCN)C(=O)N[C@@H](CCCCN)C(=O)N[C@@H](CCCCNC(=O)c1ccc2c(c1)C(=O)OC21c2ccc(O)cc2Oc2cc(O)ccc21)C(=O)O [6A, RQAKAAAQNRRAKAKKK-FAM] (H-RQAKAAAQNRRAKAKKK(5FAM)-OH)
average fluorescence intensity relative to the wild-type penetratin group (HCEC cells): 1/10 | FAM fluorescence signal in cells [1]: weaker
